Test results: article PMC9436923
Results are given in words; binding and its absence hold for the method and conditions named. Binding seen in cells or lysates may run through a third protein. Some results given as binding are weak or reduced against the parent protein; the word gives no strength.

By UniProt entry, the sequences of proteins in these tests, tags left out. Residues count along the entry.
UniProt P46531, residues 1754-2555: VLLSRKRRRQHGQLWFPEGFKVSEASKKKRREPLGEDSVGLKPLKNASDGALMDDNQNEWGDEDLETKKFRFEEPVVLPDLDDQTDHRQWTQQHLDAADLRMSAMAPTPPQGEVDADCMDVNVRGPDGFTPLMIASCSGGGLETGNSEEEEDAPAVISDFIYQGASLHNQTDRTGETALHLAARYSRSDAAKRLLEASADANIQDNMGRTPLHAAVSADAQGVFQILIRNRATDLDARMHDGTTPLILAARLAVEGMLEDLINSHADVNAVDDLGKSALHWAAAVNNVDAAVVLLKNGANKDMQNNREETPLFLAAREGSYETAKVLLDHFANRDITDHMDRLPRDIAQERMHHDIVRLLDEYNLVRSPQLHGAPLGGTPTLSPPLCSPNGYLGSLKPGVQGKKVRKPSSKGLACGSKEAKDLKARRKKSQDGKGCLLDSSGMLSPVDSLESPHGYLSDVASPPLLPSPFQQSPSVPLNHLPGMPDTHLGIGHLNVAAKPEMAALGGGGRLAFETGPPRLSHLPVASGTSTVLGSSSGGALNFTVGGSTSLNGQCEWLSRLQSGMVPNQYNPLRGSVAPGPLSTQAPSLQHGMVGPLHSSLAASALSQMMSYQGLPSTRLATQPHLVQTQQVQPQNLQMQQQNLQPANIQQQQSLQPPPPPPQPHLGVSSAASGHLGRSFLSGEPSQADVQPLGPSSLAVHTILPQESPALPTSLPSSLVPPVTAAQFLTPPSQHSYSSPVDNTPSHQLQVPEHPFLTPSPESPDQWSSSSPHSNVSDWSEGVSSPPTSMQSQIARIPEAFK
UniProt P49841: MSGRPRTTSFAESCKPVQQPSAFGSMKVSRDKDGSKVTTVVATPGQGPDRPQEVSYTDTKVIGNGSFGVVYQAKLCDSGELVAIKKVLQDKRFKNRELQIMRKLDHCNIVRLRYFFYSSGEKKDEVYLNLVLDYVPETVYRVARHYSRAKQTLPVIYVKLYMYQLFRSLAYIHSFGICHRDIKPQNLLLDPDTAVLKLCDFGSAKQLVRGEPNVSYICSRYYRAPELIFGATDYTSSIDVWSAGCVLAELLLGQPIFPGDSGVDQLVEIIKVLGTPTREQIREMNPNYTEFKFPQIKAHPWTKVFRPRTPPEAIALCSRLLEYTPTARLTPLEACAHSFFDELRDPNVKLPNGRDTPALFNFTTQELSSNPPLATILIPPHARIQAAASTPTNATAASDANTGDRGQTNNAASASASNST

Assays:
[1] = biological target: active NOTCH1 intracellular domain (N1-ICD) (human (endogenous in primary CLL cells)) (UniProt P46531); test: proximity ligation; Duolink PLA on fixed, permeabilised primary CLL cells with rabbit anti-NOTCH1 (Val1744, clone D3B8) and mouse anti-GSK3β (clone 3D10); cells cultured 1.5 h with DMSO or 5 µM SB216763 (SB216763 decreased the PLA signals); n = 3
[2] = biological target: active NOTCH1 intracellular domain (N1-ICD) (human (endogenous in primary CLL cells)) (UniProt P46531); test: co-IP; N1-ICD immunoprecipitated from whole-cell lysates (4 mg) of primary CLL cells with anti-NOTCH1 (Val1744, clone D3B8), 4 °C overnight, Protein A/G Plus Agarose; washed six times in 10 mM Tris-HCl pH 7.5, 150 mM NaCl, 5 mM EGTA, 0.1% IGEPAL CA-630; blot with anti-GSK3β (clone 3D10); normal rabbit IgG as negative control; n = 3

binding [1]: binds
binding [2]: binds
Substance: GSK3β (from UniProt P49841 1-420) (enzyme)
